# Results: the supplement of paper PMC9135407
# Where “and” joins values, the source holds several entries; their conditions need not be identical. Identical values can stand only once. Counter-ions that a name gives are not always drawn. ± gives the standard deviation of the averaged measurements. The list shows a part of the results. Baselines shift from plate to plate; read single values as rough.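 Culture-activated primary human stellate myofibroblasts, where regained lipid droplets signal inactivation. Value: share of Hoechst-counted cells above a per-plate Bodipy cutoff, in duplicate wells, with DMSO negative and nortriptyline positive controls on each plate. Hits: a control-normalized score above the plate's top-tenth-percentile nortriptyline wells, or one of a plate's three best wells. Final well concentrations are not given.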
# Test system: primary human hepatic stellate cells (donor 1)
# Test: percent Bodipy-positive cells; higher = more lipid droplet accumulation
# Settings: 48 h
# [1] = library stock concentration: 10 mM
# [2] = library stock concentration: 3.33 mM
# [3] = library stock concentration: 80 uM
# [4] = library stock concentration: 400 uM
# [5] = library stock concentration: 2 mM
# [6] = library stock concentration: 7.5 mM
smiles,measurement,setting,value
COc1cc2nccc(Oc3ccc(NC(=O)Nc4ccc(F)cc4F)c(F)c3)c2cc1OC,percent Bodipy-positive cells,[1],67.2 ± 1.1%
CN1CC(O)C(O)C(O)C1CO (stereo unspecified) [N-Methyl-1-deoxynojirimycin],percent Bodipy-positive cells,[1],51.2 ± 13%
CCCCc1oc2ccc(NS(C)(=O)=O)cc2c1C(=O)c1ccc(OCCCN(CCCC)CCCC)cc1 [Dronedarone HCl],percent Bodipy-positive cells,[2],97.1 ± 1.5%
same,percent Bodipy-positive cells,[1],96 ± 5.7%
N#Cc1ccc2c(c1)N(CCCN1CCC(O)CC1)c1ccccc1S2 [Periciazine],percent Bodipy-positive cells,[1],64.3 ± 17%
COC(=O)N[C@H](C(=O)N1CCC[C@H]1c1ncc(-c2ccc(-c3ccc(-c4cnc([C@@H]5CCCN5C(=O)[C@@H](NC(=O)OC)C(C)C)[nH]4)cc3)cc2)[nH]1)C(C)C,percent Bodipy-positive cells,[1],98.72 ± 0.1%
CCn1cc(-c2ccnc3[nH]c(-c4cccc(CN(C)C)c4)cc23)c(-c2ccc(NC(=O)N(C)C)cc2)n1,percent Bodipy-positive cells,[1],99.7 ± 0.42%
CCC1(c2ccccc2)C(=O)NCNC1=O [Primidone],percent Bodipy-positive cells,,7.8 ± 0.89%
same,percent Bodipy-positive cells,[2],10 ± 3.1%
same,percent Bodipy-positive cells,library stock concentration: 9.2 mM,23.6 ± 17%
CCC1(c2ccccc2)C(=O)NCNC1=O,percent Bodipy-positive cells,[1],26.303 ± 0.018%
Cc1ccc(Nc2cc(-c3cccc(N4C(=O)c5ccccc5C4=O)c3)ncn2)cc1NS(C)(=O)=O,percent Bodipy-positive cells,[3],12.9 ± 0.51%
same,percent Bodipy-positive cells,[4],12.9 ± 6.9%
same,percent Bodipy-positive cells,[5],11.4 ± 5.9%
same,percent Bodipy-positive cells,[1],17.2 ± 3%
CC(=O)OC[C@H]1O[C@@H]([S-])[C@H](OC(C)=O)[C@@H](OC(C)=O)[C@@H]1OC(C)=O.CCP(CC)CC.[Au+] [Auranofin],percent Bodipy-positive cells,[1],99.46 ± 0.76%
O=C(c1ccccc1)c1ccc(N2CCOCC2)cc1O [DNA-PK Inhibitor V],percent Bodipy-positive cells,[2],11.3 ± 0.86%
COc1cc(Nc2c(C#N)cnc3cc(OCCCN4CCN(C)CC4)c(OC)cc23)c(Cl)cc1Cl [Bosutinib (SKI-606) (2 mM)],percent Bodipy-positive cells,[5],34.6 ± 13%
COc1cc(Nc2c(C#N)cnc3cc(OCCCN4CCN(C)CC4)c(OC)cc23)c(Cl)cc1Cl [Bosutinib (SKI-606) (10 mM)],percent Bodipy-positive cells,[1],96.8 ± 4.5%
COc1cc(Nc2c(C#N)cnc3cc(OCCCN4CCN(C)CC4)c(OC)cc23)c(Cl)cc1Cl [Bosutinib],percent Bodipy-positive cells,[3],3.85 ± 1.1%
same,percent Bodipy-positive cells,[4],7.33 ± 1.9%
same,percent Bodipy-positive cells,[5],19.8 ± 1.6%
same,percent Bodipy-positive cells,[1],71.7 ± 9.8%
COc1cc(Nc2c(C#N)cnc3cc(OCCCN4CCN(C)CC4)c(OC)cc23)c(Cl)cc1Cl [Bosutinib (SKI-606)],percent Bodipy-positive cells,[2],37.6 ± 2%
same,percent Bodipy-positive cells,[1],92.7 ± 9%
COc1cc(Nc2c(C#N)cnc3cc(OCCCN4CCN(C)CC4)c(OC)cc23)c(Cl)cc1Cl [Bosutinib (SKI-606) (0.4 mM)],percent Bodipy-positive cells,[4],15.5 ± 2.5%
CNCc1cn(C2CCN(CCC(C)CC(C)(C)C)CC2)nn1 (stereo unspecified),percent Bodipy-positive cells,[1],98.55 ± 0.92%
"c(c1N)(C(=O)\N=C(\N)/N)nc(c(N2CCCCCC2)n1)Cl [5-(N,N-hexamethylene)amiloride]",percent Bodipy-positive cells,[1],100%
NC(Cn1ccc(=O)c(O)c1)C(=O)O (stereo unspecified) [Mimosine],percent Bodipy-positive cells,,32.9 ± 16%
same,percent Bodipy-positive cells,[1],23.4 ± 2%
CCOC(=O)[C@H]1O[C@@H]1C(=O)N[C@@H](CC(C)C)C(=O)NCCC(C)C [Aloxistatin],percent Bodipy-positive cells,[2],26.2 ± 3.3%
same,percent Bodipy-positive cells,[1],49.8 ± 33%
CC(CN(C)C)CN1c2ccccc2Sc2ccccc21.O=C(O)C(O)C(O)C(=O)O (stereo unspecified) [Trimeprazine tartrate],percent Bodipy-positive cells,library stock concentration: 4.5 mM,81.02 ± 0.32%
CC(C)NCC(O)COc1ccc(CC(N)=O)cc1 (stereo unspecified) [Atenolol],percent Bodipy-positive cells,[6],8.76% and 23.1%
same,percent Bodipy-positive cells,[1],14.3 ± 5.2%
CC(C)NCC(O)COc1ccc(CC(N)=O)cc1 (stereo unspecified),percent Bodipy-positive cells,[1],24.5 ± 1.6%
CC(C)NCC(O)COc1ccc(CC(N)=O)cc1 (stereo unspecified) [(?)-Atenolol],percent Bodipy-positive cells,[1],52.8 ± 5.6%
CCCCNc1ncc(C(=O)NCc2ccc(-n3ccnc3)cc2)c(NC2CCC(O)CC2)n1 (stereo unspecified),percent Bodipy-positive cells,[2],61.4 ± 2.4%
same,percent Bodipy-positive cells,[1],84.8 ± 3.2%
C=CC(=O)Nc1cccc(Sc2nc(Nc3ccc(N4CCN(C)CC4)cc3)ncc2Cl)c1,percent Bodipy-positive cells,[2],12.3 ± 3.2%
same,percent Bodipy-positive cells,[1],83.2 ± 13%
Cn1c(=O)c2c(ncn2CC2OCCO2)n(C)c1=O [Doxofylline],percent Bodipy-positive cells,[2],10.9 ± 8.3%
same,percent Bodipy-positive cells,[6],9.62 ± 0.29%
same,percent Bodipy-positive cells,[1],41 ± 17%
CCN(CC)CCCCNc1ncc2cc(-c3cc(OC)cc(OC)c3)c(NC(=O)NC(C)(C)C)nc2n1,percent Bodipy-positive cells,[5],93.7 ± 3%
same,percent Bodipy-positive cells,[1],98.14 ± 0.81%
COCC(=O)NC/C=C/c1ccc2ncnc(Nc3ccc(Oc4ccc(C)nc4)c(C)c3)c2c1,percent Bodipy-positive cells,[3],9.6 ± 2.2%
same,percent Bodipy-positive cells,[4],10.4% and 26.4%
same,percent Bodipy-positive cells,[1],20.1 ± 1.8%
CCCCC/C=C\C[C@@H](O)/C=C/C=C\C/C=C\CCCC(=O)O,percent Bodipy-positive cells,library stock concentration: 100 uM,7.14 ± 7.9%
CC(=O)N(CC(O)CO)c1c(I)c(C(=O)NCC(O)CO)c(I)c(C(=O)NCC(O)CO)c1I (stereo unspecified) [Iohexol],percent Bodipy-positive cells,,32 ± 11%
CN(CCCCCCCCCCN(C)C(=O)Oc1cccc([N+](C)(C)C)c1)C(=O)Oc1cccc([N+](C)(C)C)c1 [Demecarium bromide],percent Bodipy-positive cells,,23.3 ± 4.9%
COC(=O)Nc1nc2cc(Sc3ccccc3)ccc2[nH]1 [Fenbendazole],percent Bodipy-positive cells,,30.4 ± 2.9%
same,percent Bodipy-positive cells,[2],41.4 ± 8.1%
same,percent Bodipy-positive cells,library stock concentration: 6.7 mM,83.6% and 84%
COc1cccc(C=NCCN=Cc2cccc(OC)c2[O-])c1[O-].[Cl-].[Mn+3],percent Bodipy-positive cells,[2],10.9 ± 2.7%
same,percent Bodipy-positive cells,[1],49.2 ± 0.78%
Cc1ccc(C(=O)Nc2cccc(C(F)(F)F)c2)cc1-c1ccc2nc(NCCN3CCOCC3)ncc2c1,percent Bodipy-positive cells,[1],89.2 ± 1.4%
CC(C)NC[C@@H](C(=O)N1CCN(c2ncnc3c2[C@H](C)C[C@H]3O)CC1)c1ccc(Cl)cc1,percent Bodipy-positive cells,[3],6.606 ± 0.018%
same,percent Bodipy-positive cells,[4],8.03 ± 3.1%
same,percent Bodipy-positive cells,[5],19.6 ± 4.5%
same,percent Bodipy-positive cells,[2],31.6 ± 11%
same,percent Bodipy-positive cells,[1],51.5 ± 18%
Cc1ccc([C@@H]2O[C@H](CO)[C@@H](O)[C@H](O)[C@H]2O)cc1Cc1ccc(-c2ccc(F)cc2)s1 [Canagliflozin],percent Bodipy-positive cells,[2],17.4 ± 10%
same,percent Bodipy-positive cells,[1],27.2 ± 7.8%
CC(C)(C)c1cc(C(C)(C)C)c(NC(=O)c2c[nH]c3ccccc3c2=O)cc1O [Ivacaftor (VX-770)],percent Bodipy-positive cells,[2],27.7 ± 4.9%
same,percent Bodipy-positive cells,[1],81.8 ± 12%
CC(=O)N(CC(O)CO)c1c(I)c(C(=O)NCCO)c(I)c(C(=O)NCC(O)CO)c1I (stereo unspecified),percent Bodipy-positive cells,[1],39.3 ± 12%
CN1CCN(CC(=O)N2c3ccccc3C(=O)Nc3cccnc32)CC1 [Pirenzepine dihydrochloride],percent Bodipy-positive cells,,24 ± 9.3%
same,percent Bodipy-positive cells,[1],11.5 ± 0.91%
CN1CCN(CC(=O)N2c3ccccc3C(=O)Nc3cccnc32)CC1 [Pirenzepine hydrochloride],percent Bodipy-positive cells,library stock concentration: 4.7 mM,18.1 ± 4%
same,percent Bodipy-positive cells,[1],20.9 ± 0.4%
CN1CCN(CC(=O)N2c3ccccc3C(=O)Nc3cccnc32)CC1 [Pirenzepine 2HCl],percent Bodipy-positive cells,library stock concentration: 5.7 mM,8.84 ± 2.9%
CO[C@H]1/C=C/O[C@@]2(C)Oc3c(C)c(O)c4c(O)c(c5c(nc6cc(C)ccn65)c4c3C2=O)NC(=O)/C(C)=C\C=C\[C@H](C)[C@H](O)[C@@H](C)[C@@H](O)[C@@H](C)[C@H](OC(C)=O)[C@@H]1C,percent Bodipy-positive cells,[1],13.3 ± 9.6%
CO[C@H]1/C=C/O[C@@]2(C)Oc3c(C)c(O)c4c(O)c(c5c(nc6cc(C)ccn65)c4c3C2=O)NC(=O)/C(C)=C\C=C\[C@H](C)[C@H](O)[C@@H](C)[C@@H](O)[C@@H](C)[C@H](OC(C)=O)[C@@H]1C [Rifaximin],percent Bodipy-positive cells,[2],10.5 ± 1.7%
same,percent Bodipy-positive cells,[1],11.2 ± 0.84%
